Experimental data: PubChem BioAssay AID1159584 (Peter MacCallum Cancer Centre, 2016)

Aim: 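Genes that CDH1-null MCF10A cells selectively depend on to survive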 (primary screen)
Cells: human MCF10A breast epithelial cells, parental and CDH1-null
Knock-down reagent: siRNA against human genes
Detection: 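Cell viability by CellTiter-Glo ATP luminescence, each line scaled to the mean of mock wells across plates, then CDH1-null over parental ratio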
Scale: CDH1-null / parental viability ratio: higher = CDH1-null cells survive relatively better than parental; CDH1-null viability vs mock: higher = more viable CDH1-null cells
Shown is a random part of about 18,000 reagents. Further read-outs or replicates are left out here. Not stated in the record: the amount of reagent, the time to read-out.

target gene,PubChem SID,CDH1-null / parental viability ratio,CDH1-null viability vs mock (fraction of mock)
A2ML1,SID152149048,0.69,0.98
HTRA3,SID134311324,1.21,0.46
NAP1L4,SID152153409,0.9,0.38
CD3G,SID134315370,1.12,0.9
KIF5A,SID134313426,0.94,0.85
ACOT4,SID135621690,0.94,0.75
ZNF219,SID152153016,0.97,0.91
ZNF773,SID134326849,0.87,0.58
APPL2,SID152156303,0.95,0.6
RIBC1,SID134320983,0.95,0.74
RAB39A,SID134326569,1.13,0.61
POLR3G,SID135623923,0.75,0.72
CSF3R,SID135621460,0.91,0.89
SLC39A5,SID135621359,1.09,0.51
CHTF18,SID135622638,1.37,1.03
TMEM237,SID152152909,0.87,0.52
UQCRFS1,SID135623914,0.91,0.87
CMKLR2,SID152152354,0.92,0.92
SHBG,SID134318367,0.99,0.73
ALAS1,SID134314040,1.11,0.8
GULP1,SID135621565,0.86,0.83
ABHD17A,SID134311372,1.07,0.88
NACC2,SID134319972,0.98,0.53
APBA1,SID134321349,1.05,0.65
RPS6,SID134309811,0.81,0.26
EXD3,SID135623452,1.16,0.88
GP5,SID152148495,0.97,0.66
ACTC1,SID135622243,0.71,0.68
SLC6A20,SID134312684,1.05,0.97
PPP3CC,SID134314659,1.37,0.52

6 successive entries already listed:
target gene,PubChem SID,CDH1-null / parental viability ratio,CDH1-null viability vs mock (fraction of mock)
RIBC1,SID134320983,0.95,0.74
RAB39A,SID134326569,1.13,0.61
POLR3G,SID135623923,0.75,0.72
CSF3R,SID135621460,0.91,0.89
SLC39A5,SID135621359,1.09,0.51
CHTF18,SID135622638,1.37,1.03

Continued:
target gene,PubChem SID,CDH1-null / parental viability ratio,CDH1-null viability vs mock (fraction of mock)
MFAP5,SID134315765,0.88,0.53
TSTD2,SID152149726,0.94,0.68
CD1D,SID152155067,0.82,0.72
MSC,SID152149011,0.95,0.61
MRPL47,SID135622472,1.17,0.54
SAPCD2,SID134321698,1.17,0.94
IRX5,SID152154313,1.21,1.19
CCL8,SID135621456,1.13,0.88
CSNK1G2,SID152151854,0.87,0.9
PCDHB7,SID134317748,1.16,0.52
TSPY3,SID135625581,0.9,0.56
IPO9,SID152148483,0.8,0.53
THUMPD1,SID134324683,1.03,0.64
PDIA6,SID152154373,1.01,0.88
OR4F15,SID134329778,1.26,1.08
CFAP119,SID135624929,0.89,0.73
